Measured values published in paper PMC4321561 (Frontiers in Pharmacology, 2015).

Experiments:
[1] = Fmoc solid-phase peptide synthesis; HCTU; conditions: whole synthesis, UHPLC (Shimadzu), analytical C18
[2] = general procedure: Boc solid-phase peptide synthesis; HCTU; conditions: UHPLC (Shimadzu), analytical C18

Substance	final HPLC purity [1] [%]	final HPLC purity ([2]; conjugation step) [%]	final HPLC purity ([2]; whole synthesis) [%]
NH2-YGRKKRRQRRRPPQG-COOH	99.3	99.2	
PEPTIDE1{G.G.V.C.P.K.I.L.K.K.C.R.R.D.S.D.C.P.G.A.C.I.C.R.G.N.G.Y.C.G.S.G.S.D}$PEPTIDE1,PEPTIDE1,1:R1-34:R2|PEPTIDE1,PEPTIDE1,4:R3-21:R3|PEPTIDE1,PEPTIDE1,11:R3-23:R3|PEPTIDE1,PEPTIDE1,17:R3-29:R3$$$V2.0		95.9	99.1
PEPTIDE1{G.G.V.C.P.R.I.L.R.R.C.R.R.D.S.D.C.P.G.A.C.I.C.K.G.N.G.Y.C.G.S.G.S.D}$PEPTIDE1,PEPTIDE1,1:R1-34:R2|PEPTIDE1,PEPTIDE1,4:R3-21:R3|PEPTIDE1,PEPTIDE1,11:R3-23:R3|PEPTIDE1,PEPTIDE1,17:R3-29:R3$$$V2.0		96.0	97.5
PEPTIDE1{G.G.V.C.Y.G.R.R.A.R.R.R.C.R.R.D.S.D.C.P.G.A.C.I.C.K.G.N.G.Y.C.G.S.G.S.D}$PEPTIDE1,PEPTIDE1,1:R1-36:R2|PEPTIDE1,PEPTIDE1,4:R3-23:R3|PEPTIDE1,PEPTIDE1,13:R3-25:R3|PEPTIDE1,PEPTIDE1,19:R3-31:R3$$$V2.0		93.9	99.4
PEPTIDE1{Y.G.R.K.A.R.R.R.R.R.R}$$$$V2.0	98.5	99.0	

HELM strings list residues between dots; [ac] is acetyl, [am] amide, other brackets name non-standard units.
